In patent US8685469B2, “In vitro anti-sickling activity of betulinic acid, oleanolic acid and their derivatives” (University of KwaZulu-Natal, priority 2009, dated 2014):
Some results were stated once for a whole list of compounds, not compound by compound.

System: sickled blood cells (SS blood erythrocytes)
Test: In vitro anti-sickling activity, Emmel test on SS blood
Assay type: cell-based
Procedure: Blood samples were collected from “Centre de Medecine Mixte et d'Anémie SS” located in Kinshasa, Democratic Republic of Congo (DRC). The blood samples were first characterised by Hb electrophoresis on cellulose acetate gel, in order to confirm their SS nature, as previously reported by Mpiana et al., 2007^6. Confirmed SS blood samples were refrigerated at ˜4° C., and used for Emmel test.
A drop of physiological solution was put on a glass slide and a drop of SS blood was added on the physiological solution. One drop of 2% sodium metabisulphite solution was added on the slide glass which was hermetically covered using a cover glass with melted paraffin wax and kept covered for 2 hours in order to accelerate the sickling of the blood. After 2 hours in anaerobic conditions, the blood sample became deoxygenated and adopted sickle shape. Assay was observed under an optical microscope and the number of observed erythrocytes was determined using Thomas' cell (Courtejoie, J. and Hartaing, I, 1992)^7.
SS blood samples were contacted at different concentrations with diluted samples of the compounds (8), (9), (10), and (11) using physiological solution (NaCl 0.9%) as dilution solvent, according to Emmel's test procedure as reported above and optical measurements were taken.
Pictures were obtained with an optical microscope (motic). […]

For `CC1(C)CC[C@]2(C(=O)O)CC[C@]3(C)C(=CC[C@@H]4[C@@]5(C)C[C@@H](O)[C@H](O)C(C)(C)[C@@H]5CC[C@]43C)[C@@H]2C1` [DS/FS/2, Maslinic acid], the “normalisation of sickled blood cells” value was over 70%.
